Assay results from PubChem BioAssay AID308 (DTP/NCI, 2004).
The list is a part of this screen's results and no random one: it is rich in T/C values a quarter to a half above the control, in often repeated tests (any T/C) and in doses without a T/C. Further doses and runs are listed elsewhere. T/C gives the treated animals as a percentage of the vehicle group. Some doses have a count of surviving animals in place of a T/C: the source holds a T/C of zero for them, seemingly a mark for toxic or unscored doses. Some doses without a T/C left all or most animals alive at the check, yet need not have been tolerated: the source hardly ever lists a survival T/C far under the control, and the zero likely stands for such cases as well. Counts of survivors are from the toxicity check (mostly the fifth day) where no day follows; animals may have died later. Schedules are NCI's codes, read here as Q, the interval in days (D) or hours (H), X, the number of doses. Some entries were tested several times; their values stand side by side, smallest first. Some schedules carry Z or #; the key to these is not given. Where survival is the endpoint, the PubChem record calls one and a half times the control and up active, and a quarter to a half above the control has no call in these data; cut-offs in other NCI protocols can differ. Some T/C values are followed by the survivors on the day toxicity was checked, most often the fifth; where none is given, no animal had died by that day.

System: BDF1 mice, L1210 6-MP/6-TG resistant leukemia ip, survival T/C
Experiment: NCI In Vivo Anticancer Drug Screen. Data for tumor model L1210 Leukemia resistant to 6-MP and 6-Thioguanine; NSC 755, NSC 752 (intraperitoneal) in B6D2F1 (BDF1) mice
Details: T/C endpoint: mean survival time, higher T/C = longer survival
Protocol: The antitumor activity of compounds was measured in mice bearing transplantable tumors. Survival or tumor size were measured and the results are expressed as the measurement made in the treated group (T) divided by the measurement made in the vehicle treated control group (C). The tumor model used in this assay is L1210 Leukemia resistant to 6-MP and 6-Thioguanine; NSC 755, NSC 752 (intraperitoneal) in B6D2F1 (BDF1) mice

[1] = dose: 250.0 mg/kg/injection, schedule: Q01DX Z (ip), vehicle: saline
[2] = dose: 6.0 mg/kg/injection, schedule: Q01DX001 (ip), vehicle: carboxymethylcellulose (CMC)
[3] = dose: 8.0 mg/kg/injection, schedule: Q01DX001 (ip), vehicle: carboxymethylcellulose (CMC)
[4] = dose: 10.0 mg/kg/injection, schedule: Q01DX001 (ip), vehicle: carboxymethylcellulose (CMC)
[5] = dose: 22.0 mg/kg/injection, schedule: Q01DX001 (ip), vehicle: saline

For `C=CC(CN1CC1)OC(C)=O` (stereo not given), which T/C (dose: 1.5 mg/kg/injection, schedule: Q01DX Z (ip), vehicle: saline) is on record?
Its T/C is 125 % of control.

And the T/C (dose: 6.0 mg/kg/injection, schedule: Q01DX Z (ip), vehicle: saline)?
Its T/C is 139 % of control.

And the T/C (dose: 10.0 mg/kg/injection, schedule: Q01DX Z (ip), vehicle: saline)?
The T/C was 131 % of control.

What about the survivor count (dose: 20.0 mg/kg/injection, schedule: Q01DX Z (ip), vehicle: saline) of the same compound?
The survivor count was 6 of 6.

And the survivor count (dose: 30.0 mg/kg/injection, schedule: Q01DX Z (ip), vehicle: saline)?
The survivor count was 5 of 6.

With `OCC1OC(n2cnc3c(=S)nc[nH]c32)CC1O` (stereo not given) as the compound, how does the survivor count (dose: 500.0 mg/kg/injection, schedule: Q01DX015 (ip), vehicle: carboxymethylcellulose (CMC)) read?
Its survivor count is 5 of 6.

Which survivor count (dose: 500.0 mg/kg/injection, schedule: Q01DX Z (ip), vehicle: other) does the source give for `Clc1ccccc1CSc1ncnc2nc[nH]c12` here?
Its survivor count is 7 of 10.

How did the T/C (dose: 5.7 mg/kg/injection, schedule: Q01DX015 (ip), vehicle: carboxymethylcellulose (CMC)) turn out when `O=C(Nc1ccc(C2=NCCN2)cc1)c1ccc(C(=O)Nc2ccc(C3=NCCN3)cc2)c(Cl)c1` was run?
The T/C was 148 % of control.

And the T/C (dose: 6.7 mg/kg/injection, schedule: Q01DX015 (ip), vehicle: carboxymethylcellulose (CMC))?
The T/C was 147 % of control.

What about the T/C (dose: 7.0 mg/kg/injection, schedule: Q01DX015 (ip), vehicle: carboxymethylcellulose (CMC)) of the same compound?
The T/C was 129 % of control.

And the T/C (dose: 10.0 mg/kg/injection, schedule: Q01DX015 (ip), vehicle: carboxymethylcellulose (CMC))?
The T/C was 140 % of control.

And the T/C (dose: 13.0 mg/kg/injection, schedule: Q01DX015 (ip), vehicle: carboxymethylcellulose (CMC))?
The T/C was 87, 190, 221, 271 % of control.

And the T/C (dose: 20.0 mg/kg/injection, schedule: Q02DX010 (ip), vehicle: carboxymethylcellulose (CMC))?
Its T/C is 146 % of control [9 of 10 alive].

What about the T/C (dose: 67.5 mg/kg/injection, schedule: Q02DX010 (ip), vehicle: carboxymethylcellulose (CMC)) of the same compound?
The T/C was 131 % of control.

`CCOC(=O)NP(=O)(N1CC1(C)C)N1CC1(C)C` (stereo not given) was tested. Which T/C [1] did it give?
Its T/C is 133 % of control [5 of 6 alive].

What does the source list for `Nc1ncnc2c1ccn2C1OC(CO)C(O)C1O` (stereo not given)?
T/C (dose: 4.0 mg/kg/injection, schedule: Q01DX001 (ip), vehicle: carboxymethylcellulose (CMC)): 104, 116, 118, 119 % of control; survivor count (dose: 4.0 mg/kg/injection, schedule: Q01DX Z (ip), vehicle: carboxymethylcellulose (CMC)): 6 of 6; T/C [2]: 94 [9 of 10 alive], 114, 129 % of control; survivor count [2]: 10 of 10; T/C [3]: 110 and 130 % of control; survivor count [3]: 9 of 10; T/C [4]: 103 % of control; survivor count [4]: 5 of 10, 9 of 10, 10 of 10; survivor count (dose: 12.0 mg/kg/injection, schedule: Q01DX001 (ip), vehicle: carboxymethylcellulose (CMC)): 6 of 10, 7 of 10, 8 of 10

`CCCCNc1ncnc2c1cnn2C` was tested. Which survivor count [1] did it give?
The survivor count was 0 of 6.

With `CC[C@]1(O)C[C@H]2CN(CCc3c([nH]c4ccccc34)[C@@](C(=O)OC)(c3cc4c(cc3OC)N(C=O)[C@H]3[C@@](O)(C(=O)OC)[C@H](OC(C)=O)[C@]5(CC)C=CCN6CC[C@]43[C@@H]65)C2)C1` as the compound, how does the survivor count (dose: 0.45 mg/kg/injection, schedule: Q01DX015 (ip), vehicle: carboxymethylcellulose (CMC)) read?
The survivor count was 10 of 10.

For `CN(C)C(=S)N=Nc1c(O)[nH]c2ccccc12`, which survivor count (dose: 200.0 mg/kg/injection, schedule: Q01DX Z (ip), vehicle: carboxymethylcellulose (CMC)) is on record?
Its survivor count is 5 of 6.

With `Nc1nc(F)nc2c1ncn2C1OC(CO)C(O)C1O` (stereo not given) as the compound, how does the T/C (dose: 15.0 mg/kg/injection, schedule: Q01DX001 (ip), vehicle: saline) read?
Its T/C is 97, 103, 106, 111 % of control.

And the T/C [5]?
The T/C was 101, 107 [7 of 10 alive], 110 % of control.

What about the survivor count [5] of the same compound?
Its survivor count is 9 of 10.

What about the survivor count (dose: 33.0 mg/kg/injection, schedule: Q01DX001 (ip), vehicle: saline) of the same compound?
Its survivor count is 6 of 10, 7 of 10, 8 of 10.

With `Nc1nc(SCc2ccccc2)c2[nH]cnc2n1` as the compound, how does the survivor count (dose: 15.0 mg/kg/injection, schedule: Q01DX Z (ip), vehicle: carboxymethylcellulose (CMC)) read?
The survivor count was 6 of 6.

And the survivor count (dose: 50.0 mg/kg/injection, schedule: Q01DX Z (ip), vehicle: carboxymethylcellulose (CMC))?
Its survivor count is 6 of 6.

What about the survivor count (dose: 75.0 mg/kg/injection, schedule: Q01DX Z (ip), vehicle: carboxymethylcellulose (CMC)) of the same compound?
Its survivor count is 6 of 6.

What about the survivor count (dose: 100.0 mg/kg/injection, schedule: Q01DX Z (ip), vehicle: carboxymethylcellulose (CMC)) of the same compound?
The survivor count was 6 of 6.
